For the test, the target named is T1, Rv1768 (PE_PGRS31), full-length, 6xHis-tagged (M. tuberculosis H37Rv) (UniProt Q79FK9).
T1 sequence: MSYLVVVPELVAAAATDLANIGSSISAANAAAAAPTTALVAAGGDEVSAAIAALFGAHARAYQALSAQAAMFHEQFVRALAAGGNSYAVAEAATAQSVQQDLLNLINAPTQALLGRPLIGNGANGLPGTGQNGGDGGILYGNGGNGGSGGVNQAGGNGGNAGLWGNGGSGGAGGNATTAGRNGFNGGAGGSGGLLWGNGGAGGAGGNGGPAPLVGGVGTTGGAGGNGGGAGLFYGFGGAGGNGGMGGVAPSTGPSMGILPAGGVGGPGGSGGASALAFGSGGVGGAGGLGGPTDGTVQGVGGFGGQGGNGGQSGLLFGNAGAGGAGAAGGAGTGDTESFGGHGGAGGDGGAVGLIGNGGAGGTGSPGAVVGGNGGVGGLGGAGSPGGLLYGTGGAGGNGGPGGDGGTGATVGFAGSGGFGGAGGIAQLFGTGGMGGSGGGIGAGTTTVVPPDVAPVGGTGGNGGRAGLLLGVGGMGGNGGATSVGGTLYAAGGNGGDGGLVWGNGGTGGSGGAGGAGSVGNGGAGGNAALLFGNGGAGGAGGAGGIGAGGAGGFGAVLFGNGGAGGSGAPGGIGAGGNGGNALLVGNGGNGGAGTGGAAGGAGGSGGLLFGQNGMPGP
Description: affinity purification with mass spectrometry; only the target purified.

No constants are given. Whether binding was seen depends on the method and setting. Binding seen in cells or lysates may run through a third protein. Here binding means that the protein was enriched with, or labelled near, the bait; the list need not be complete. Where a sequence is shown, tags or fusion partners need not be part of it.

B1: S100A9 (protein, UniProt P31725 1-113)
chain: MANKAPSQMERSITTIIDTFHQYSRKEGHPDTLSKKEFRQMVEAQLATFMKKEKRNEALINDIMEDLDTNQDNQLSFEECMMLMAKLIFACHEKLHENNPRGHGHSHGKGCGK
Turning to B1, the binding result is given as “binds”.

Source of the values: article PMC7225313.
